PubChem BioAssay AID602196, INSERM | 2012
Assay: 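Genes whose knock-down alters cisplatin killing of lung cancer cells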. Cells: human A549 lung cancer cells. Reagents: siRNA pair against human genes. Timing: 48 h transfection before cisplatin; time from cisplatin to read-out not stated. Conditions: cisplatin at a dose killing half of control-siRNA cells; exact dose and duration not given. Detection: 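Cisplatin cell death as a shift from the 50% death seen with control siRNA; siRNAs toxic or growth-blocking alone scored 0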. Reading the numbers: two-siRNA summed score (-2 to +2): higher = both siRNAs protect from cisplatin killing; -2 means both sensitise; mean protection from cisplatin (shift in death) and protection from cisplatin (shift in death), siRNA C and protection from cisplatin (shift in death), siRNA D: higher = protection from cisplatin killing. Hit rule: 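Each siRNA scores 0 if harmful alone by LDH or WST-1, otherwise +1 if it reduces and -1 if it increases cisplatin killing; a gene is active when both siRNAs agree (sum +2 or -2)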. Meaning of the calls: active = both siRNAs shift cisplatin killing the same way; inactive = no consistent shift, or siRNA harmful alone.
In all, the deposit lists about 23,000 reagents; this is a part drawn at random. 455 of them (2%) count as active. 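Active includes both protection and sensitisation; some change values fall well beyond the stated -50 to +50 range.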 Not stated in the record: the amount of reagent.

gene knocked down | two-siRNA summed score (-2 to +2) | mean protection from cisplatin (shift in death) (%) | protection from cisplatin (shift in death), siRNA C (%) | protection from cisplatin (shift in death), siRNA D (%) | activity call
MTF2 | 0 | -19.2 | -24.9 | -13.4 | inactive
QDPR | 0 | 2 | -10.3 | 14.3 | inactive
ACP2 | 1 | 5.5 | 10.4 | 0.7 | inactive
DLG2 | 0 | -2.3 | -7.8 | 3.3 | inactive
CPSF2 | 0 | 1.2 | 12.1 | -9.8 | inactive
INSL3 | 1 | 4.2 | 20.5 | -12.1 | inactive
OGN | 0 | 0.1 | 6.6 | -6.3 | inactive
SETDB1 | 1 | 6.2 | 16.3 | -4 | inactive
SPINK5 | 0 | 14.7 | 21.2 | 8.1 | inactive
MAGT1 | -1 | -16.3 | -22.2 | -10.4 | inactive
LINC01553 | 0 | 13.5 | 16.8 | 10.1 | inactive
PREX1 | 0 | 4 | 16 | -8 | inactive
LOC440451 | 0 | 2.6 | 8 | -2.8 | inactive
LIPE | 1 | 16.3 | 16.7 | 16 | inactive
MS4A6E | -1 | -3.5 | 17.1 | -24.2 | inactive
CLPP | -2 | -22.3 | -11.3 | -33.3 | active
SLC13A4 | 0 | 3.4 | 2.2 | 4.6 | inactive
RBL2 | 0 | 8.6 | 16.2 | 1 | inactive
KIF21B | 0 | 1 | 5.8 | -3.9 | inactive
MZT2B | -1 | -17.2 | -31.1 | -3.4 | inactive
LOC387894 | 0 | -3 | -9.3 | 3.2 | inactive
MSANTD2 | 0 | 12.1 | 11.6 | 12.7 | inactive
KDELR1 | 0 | -7.1 | 6 | -20.1 | inactive
LINC01558 | 0 | 4.9 | 13.6 | -3.9 | inactive
ENO2 | -1 | -0.8 | -12 | 10.3 | inactive
DONSON | 1 | 15.8 | 6.5 | 25.2 | inactive
LOXL1 | 0 | -0.3 | 1.7 | -2.4 | inactive
LOC392437 | 0 | 8.7 | 5.2 | 12.1 | inactive
LOC342096 | 0 | 10.9 | 2.5 | 19.3 | inactive
LOC400566 | 0 | 10.5 | 8.3 | 12.8 | inactive
LOC284788 | 1 | 2.6 | -4.5 | 9.7 | inactive
C1QBP | 0 | 1.4 | -4.4 | 7.2 | inactive
HMBOX1 | -1 | -6 | -1.2 | -10.8 | inactive
MRPL12 | 1 | 7.3 | -6 | 20.7 | inactive
LOC442611 | 0 | -1.9 | 1.7 | -5.5 | inactive
FGF19 | -1 | -4.1 | -13.7 | 5.5 | inactive
LOC441017 | 0 | 7.3 | 11.4 | 3.1 | inactive
PRR16 | 0 | 11.3 | 4.5 | 18.1 | inactive
PLPBP | 1 | 7.1 | 19.3 | -5 | inactive
